No constants are given. Whether binding was seen depends on the method and setting. Some entries that bind do so weakly or less than the wild type.
Assays:
Assay in all cases: far-Western, overlay or dot blot; two-fold dilutions of the partner proteins spotted (54 to 1.7 pmol) on nitrocellulose; blocked with 5% milk PBS-T; 0.2 μM purified RecF in 5% milk PBS-T overnight at 4°C; detected with anti-RecF; control membrane without RecF subtracted; both purified
[1] = molecular target: DnaG RNA primase (purified) (E. coli) (UniProt P0ABS5)
[2] = molecular target: BSA (bovine (by the name BSA)) (UniProt P02769)
[3] = substrate: SSB protein (purified) (E. coli) (UniProt P0AGE0)

Sequences of proteins named here, by UniProt entry; tags and fusion partners are left off. Residues count along the entry.
UniProt P0ABS5: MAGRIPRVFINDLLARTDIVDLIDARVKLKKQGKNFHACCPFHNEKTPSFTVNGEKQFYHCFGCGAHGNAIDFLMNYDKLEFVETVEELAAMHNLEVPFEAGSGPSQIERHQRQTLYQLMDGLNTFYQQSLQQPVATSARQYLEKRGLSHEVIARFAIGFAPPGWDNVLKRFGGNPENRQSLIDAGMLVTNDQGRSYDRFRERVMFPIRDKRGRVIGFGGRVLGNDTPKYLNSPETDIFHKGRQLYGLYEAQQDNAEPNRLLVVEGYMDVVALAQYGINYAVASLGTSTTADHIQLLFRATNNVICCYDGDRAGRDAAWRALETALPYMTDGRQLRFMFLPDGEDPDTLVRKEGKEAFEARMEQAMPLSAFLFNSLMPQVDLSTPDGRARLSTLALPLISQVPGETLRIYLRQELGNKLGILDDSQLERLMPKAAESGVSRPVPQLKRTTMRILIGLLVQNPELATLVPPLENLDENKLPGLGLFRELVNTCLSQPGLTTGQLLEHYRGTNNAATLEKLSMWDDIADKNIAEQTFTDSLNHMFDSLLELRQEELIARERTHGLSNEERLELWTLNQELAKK
UniProt P02769, residues 25-607: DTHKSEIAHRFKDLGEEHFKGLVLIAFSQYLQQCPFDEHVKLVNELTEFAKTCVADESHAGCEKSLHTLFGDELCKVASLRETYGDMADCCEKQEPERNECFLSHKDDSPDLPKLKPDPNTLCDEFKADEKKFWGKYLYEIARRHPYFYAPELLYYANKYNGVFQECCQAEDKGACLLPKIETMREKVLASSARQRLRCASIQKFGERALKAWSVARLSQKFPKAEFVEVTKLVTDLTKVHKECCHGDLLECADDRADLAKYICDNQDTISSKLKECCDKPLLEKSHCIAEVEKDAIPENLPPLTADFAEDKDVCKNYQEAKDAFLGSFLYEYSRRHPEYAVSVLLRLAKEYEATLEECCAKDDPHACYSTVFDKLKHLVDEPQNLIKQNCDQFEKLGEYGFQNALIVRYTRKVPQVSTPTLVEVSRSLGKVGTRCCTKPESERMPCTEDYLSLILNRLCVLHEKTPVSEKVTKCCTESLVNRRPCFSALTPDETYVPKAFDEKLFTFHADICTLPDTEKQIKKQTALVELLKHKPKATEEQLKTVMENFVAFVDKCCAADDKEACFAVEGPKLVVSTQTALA
UniProt P0AGE0: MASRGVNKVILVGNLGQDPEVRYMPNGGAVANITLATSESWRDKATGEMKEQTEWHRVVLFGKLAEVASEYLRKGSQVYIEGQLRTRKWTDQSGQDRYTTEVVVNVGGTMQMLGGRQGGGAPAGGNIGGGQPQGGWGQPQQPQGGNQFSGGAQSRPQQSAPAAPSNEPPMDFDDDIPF

- binding [1]: binds weakly
B1: RecF protein (purified) (protein, UniProt P0A7H0 1-357)
chain: MSLTRLLIRDFRNIETADLALSPGFNFLVGANGSGKTSVLEAIYTLGHGRAFRSLQIGRVIRHEQEAFVLHGRLQGEERETAIGLTKDKQGDSKVRIDGTDGHKVAELAHLMPMQLITPEGFTLLNGGPKYRRAFLDWGCFHNEPGFFTAWSNLKRLLKQRNAALRQVTRYEQLRPWDKELIPLAEQISTWRAEYSAGIAADMADTCKQFLPEFSLTFSFQRGWEKETEYAEVLERNFERDRQLTYTAHGPHKADLRIRADGAPVEDTLSRGQLKLLMCALRLAQGEFLTRESGRRCLYLIDDFASELDDERRGLLASRLKATQSQVFVSAISAEHVIDMSDENSKMFTVEKGKITD
- binding [2]: no binding (tested: 0.2 μM RecF; 54 to 1.7 pmol spotted)
- binding [3]: no binding (tested: 0.2 μM RecF; 54 to 1.7 pmol spotted)
